Patent US12338476B2, “Methods for making high intensity sweeteners” (Firmenich Incorporated, priority 2018, dated 2025)

Tested on: S. cerevisiae
Assay: Hydrolysis by S. cerevisiae grown in the presence of mogroside, lysate analysed by HPLC (Examples 64, 65)
Assay type: cell-based
Settings: S. cerevisiae grown in the presence of Mogroside V

Compound: C[C@H](CC[C@@H](O[C@@H]1O[C@H](CO[C@@H]2O[C@H](CO)[C@@H](O)[C@H](O)[C@H]2O)[C@@H](O)[C@H](O)[C@H]1O[C@@H]1O[C@H](CO)[C@@H](O)[C@H](O)[C@H]1O)C(C)(C)O)[C@H]1CC[C@@]2(C)[C@@H]3CC=C4[C@@H](CC[C@H](O[C@@H]5O[C@H](CO[C@@H]6O[C@H](CO)[C@@H](O)[C@H](O)[C@H]6O)[C@@H](O)[C@H](O)[C@H]5O)C4(C)C)[C@]3(C)[C@H](O)C[C@]12C [Mogroside V]
- mogroside content by HPLC (after 1 day of incubation): produced a mixture of Mogroside V, Mogrosides IV, and Mogroside IIIE
- mogroside content by HPLC (after 2 days of incubation): substantially all of the mogrosides were converted to Mogroside IIIE
